From publication PMC6831308
These are yes or no findings as the source states them, for the method shown. Binding seen in cells or lysates may run through a third protein. Some results given as binding are weak or reduced against the parent protein; the word gives no strength. Sequences can lack the tags named with a protein.

Sequences of proteins named here, by UniProt entry; tags and fusion partners are left off.
UniProt P21708: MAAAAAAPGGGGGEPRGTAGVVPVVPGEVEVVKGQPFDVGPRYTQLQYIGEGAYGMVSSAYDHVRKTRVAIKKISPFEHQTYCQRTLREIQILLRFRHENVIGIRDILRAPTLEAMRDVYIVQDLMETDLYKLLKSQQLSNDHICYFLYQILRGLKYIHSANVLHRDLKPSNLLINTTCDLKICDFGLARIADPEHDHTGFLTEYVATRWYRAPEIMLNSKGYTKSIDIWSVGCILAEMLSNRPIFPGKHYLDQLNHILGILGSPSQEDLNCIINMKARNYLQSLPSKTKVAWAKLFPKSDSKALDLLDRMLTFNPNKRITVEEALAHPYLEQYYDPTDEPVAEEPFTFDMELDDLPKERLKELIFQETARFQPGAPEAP
UniProt P63086: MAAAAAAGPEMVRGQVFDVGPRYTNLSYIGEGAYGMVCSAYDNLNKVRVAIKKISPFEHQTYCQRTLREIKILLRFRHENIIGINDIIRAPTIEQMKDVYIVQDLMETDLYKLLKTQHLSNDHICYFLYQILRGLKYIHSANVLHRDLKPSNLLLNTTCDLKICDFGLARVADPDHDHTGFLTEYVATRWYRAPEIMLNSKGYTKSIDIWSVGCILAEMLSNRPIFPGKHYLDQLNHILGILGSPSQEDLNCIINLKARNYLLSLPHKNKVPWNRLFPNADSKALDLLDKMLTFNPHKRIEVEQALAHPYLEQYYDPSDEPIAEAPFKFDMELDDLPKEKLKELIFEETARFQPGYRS

Legend:
[1] = target: ERK1 (rat (endogenous in primary cardiomyocytes of SD rats)) (UniProt P21708); experiment: co-IP; IP with monoclonal antibodies against ERK1/2 (CST) and against Maf1 (Santa Cruz), Pierce Classic IP Kit; 1 mg precleared cell lysate with 1 ug antibody overnight at 4 C, protein A/G plus agarose; primary cardiomyocytes of SD rats, 50 uM PE for 24 hours; with and without adenoviral overexpression of Maf1
[2] = target: ERK2 (rat (endogenous in primary cardiomyocytes of SD rats)) (UniProt P63086); experiment: as above

B1: Maf1 (protein, UniProt Q5XIH0 1-260)
chain: MKLLENSSFEAINSQLTVETGDAHIIGRIESYSCKMAGDDKHMFKQFCQEGQPHVLEALSPPQTSGLSPSRLSKSQGGEDESPLSDKCSRKTLFYLIATLNESFRPDYDFSTARSHEFSREPSLRWVVNAVNCSLFSAVREDFKALKPQLWNAVDEEICLAECDIYSYNPDLDSDPFGEDGSLWSFNYFFYNKRLKRIVFFSCRSISGSTYTPSEAGNALDLELGAEEVDEESGGGGGGGEGRAEETSTMEEDRVPVICM
binding [1]: binds
binding [2]: binds

B2: Maf1 overexpressed from recombinant adenovirus (Ad-Maf1) (protein, UniProt Q5XIH0 1-260)
chain: B1 chain
binding [1]: binds
binding [2]: binds
